The target in this assay is Photorhabdus luminescens TcdA1 (Photorhabdus luminescens) (UniProt Q9RN43). The experiment in a line: cryo-EM structure; both purified.

Sequences of proteins named here, by UniProt entry; tags and fusion partners are left off.
UniProt Q9RN43: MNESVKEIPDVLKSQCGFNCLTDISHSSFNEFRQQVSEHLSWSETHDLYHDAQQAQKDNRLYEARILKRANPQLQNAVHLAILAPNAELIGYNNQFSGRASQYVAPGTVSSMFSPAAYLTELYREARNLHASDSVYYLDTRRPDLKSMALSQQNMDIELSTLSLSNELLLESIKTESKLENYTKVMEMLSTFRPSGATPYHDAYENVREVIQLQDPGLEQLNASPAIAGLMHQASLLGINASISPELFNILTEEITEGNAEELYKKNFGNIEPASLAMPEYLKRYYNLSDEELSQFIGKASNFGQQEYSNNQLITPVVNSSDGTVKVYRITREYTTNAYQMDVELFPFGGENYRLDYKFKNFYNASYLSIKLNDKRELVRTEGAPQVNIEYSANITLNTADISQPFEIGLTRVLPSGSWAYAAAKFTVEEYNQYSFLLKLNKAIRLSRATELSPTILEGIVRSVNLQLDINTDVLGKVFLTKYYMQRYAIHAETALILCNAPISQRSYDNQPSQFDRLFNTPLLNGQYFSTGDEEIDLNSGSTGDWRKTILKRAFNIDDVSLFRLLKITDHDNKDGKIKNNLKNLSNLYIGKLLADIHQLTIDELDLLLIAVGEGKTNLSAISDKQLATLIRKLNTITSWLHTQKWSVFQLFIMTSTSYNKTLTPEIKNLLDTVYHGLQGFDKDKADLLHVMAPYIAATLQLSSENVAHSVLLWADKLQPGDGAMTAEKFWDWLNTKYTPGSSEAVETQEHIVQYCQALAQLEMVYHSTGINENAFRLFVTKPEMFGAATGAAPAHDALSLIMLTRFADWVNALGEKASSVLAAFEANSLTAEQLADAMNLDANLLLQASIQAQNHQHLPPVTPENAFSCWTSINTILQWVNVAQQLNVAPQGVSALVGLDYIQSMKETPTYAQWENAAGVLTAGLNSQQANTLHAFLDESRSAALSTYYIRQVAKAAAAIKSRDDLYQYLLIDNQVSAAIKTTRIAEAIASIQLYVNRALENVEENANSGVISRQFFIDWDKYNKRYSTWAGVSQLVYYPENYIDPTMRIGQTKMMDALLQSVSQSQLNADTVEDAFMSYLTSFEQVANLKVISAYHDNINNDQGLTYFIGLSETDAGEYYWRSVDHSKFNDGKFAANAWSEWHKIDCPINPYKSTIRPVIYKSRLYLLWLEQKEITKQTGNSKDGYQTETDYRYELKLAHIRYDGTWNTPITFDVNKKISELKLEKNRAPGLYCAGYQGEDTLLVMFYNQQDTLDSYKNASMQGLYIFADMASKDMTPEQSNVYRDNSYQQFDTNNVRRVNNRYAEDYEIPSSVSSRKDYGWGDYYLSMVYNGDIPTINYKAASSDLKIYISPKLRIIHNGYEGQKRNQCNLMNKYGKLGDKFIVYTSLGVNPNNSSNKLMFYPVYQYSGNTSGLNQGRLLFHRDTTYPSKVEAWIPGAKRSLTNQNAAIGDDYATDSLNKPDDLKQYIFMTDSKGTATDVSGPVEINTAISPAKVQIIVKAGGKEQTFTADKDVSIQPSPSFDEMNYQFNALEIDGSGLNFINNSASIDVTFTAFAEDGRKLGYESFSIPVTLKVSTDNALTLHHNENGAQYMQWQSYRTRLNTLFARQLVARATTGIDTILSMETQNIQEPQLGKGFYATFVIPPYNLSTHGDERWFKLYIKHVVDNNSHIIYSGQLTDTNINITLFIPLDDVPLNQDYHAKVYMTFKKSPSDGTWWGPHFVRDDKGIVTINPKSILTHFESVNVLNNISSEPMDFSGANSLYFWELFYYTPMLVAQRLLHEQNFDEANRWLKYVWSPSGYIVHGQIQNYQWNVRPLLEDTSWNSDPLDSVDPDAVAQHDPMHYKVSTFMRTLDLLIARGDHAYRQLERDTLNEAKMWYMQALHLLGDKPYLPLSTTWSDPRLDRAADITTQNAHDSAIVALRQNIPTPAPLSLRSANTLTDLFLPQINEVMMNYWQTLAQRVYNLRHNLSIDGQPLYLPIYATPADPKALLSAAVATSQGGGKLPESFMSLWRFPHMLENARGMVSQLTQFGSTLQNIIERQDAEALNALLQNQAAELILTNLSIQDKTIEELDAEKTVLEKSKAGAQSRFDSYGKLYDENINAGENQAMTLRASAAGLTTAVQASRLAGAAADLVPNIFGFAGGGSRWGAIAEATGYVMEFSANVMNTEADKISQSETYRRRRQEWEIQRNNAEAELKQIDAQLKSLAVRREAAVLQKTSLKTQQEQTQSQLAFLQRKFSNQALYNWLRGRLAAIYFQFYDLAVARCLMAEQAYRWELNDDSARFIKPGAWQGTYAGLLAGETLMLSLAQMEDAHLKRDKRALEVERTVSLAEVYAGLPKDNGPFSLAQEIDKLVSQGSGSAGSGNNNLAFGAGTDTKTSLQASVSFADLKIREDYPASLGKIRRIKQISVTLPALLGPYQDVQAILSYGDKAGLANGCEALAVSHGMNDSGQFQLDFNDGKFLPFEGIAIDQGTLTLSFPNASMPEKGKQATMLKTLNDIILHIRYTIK

Results are given in words; binding and its absence hold for the method and conditions named. Some binding calls cover weakened binding; strength is not graded here.

As to “Photorhabdus luminescens TcdA1 (from UniProt Q9RN43 1-2516)”, the binding entry is reported as “binds”.

The record behind these values is PMC7264150 (Nature Communications, 2020).
